Results deposited as PubChem BioAssay AID504808 (Drosophila RNAi Screening Center, 2011).

- Aim: 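Genes whose loss lifts activity of an E2F-responsive reporter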 (primary screen)
- Cells: Drosophila S2 cells
- Reagent: long dsRNA against Drosophila genes
- Measurement: 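Dual luciferase plate measurements; E2F-specific signal taken as firefly over Renilla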
- Reading the numbers: E2F firefly: higher = more E2F reporter activity; Renilla normaliser: higher = more normaliser reporter signal
- Call rule: 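a knock-down counted as active when the firefly/Renilla E2F signal rose above 50%, a threshold chosen arbitrarily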
The deposit covers about 21,000 reagents; this is a random part of those that have a named target and a result. Of all reagents, 18 (0.084%) are marked active. 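Raw counts without plate normalisation, one of two replicates; the ratio scores behind the calls were not deposited.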 A plus sign joins genes that one reagent is predicted to hit. No sequences are given here. Not stated in the record: the amount of reagent, the time to read-out.

gene knocked down	dsRNA	E2F firefly, rep 1	Renilla normaliser, rep 1	outcome
CG32188	DRSC09510	1.40e5	3790	inactive
CG13962	DRSC02304	84822	3958	inactive
CG15747	DRSC19713	6666	804	inactive
CG10918	DRSC20472	1.30e5	6344	inactive
Slob	DRSC02296	1.44e5	4911	inactive
S-Lap1	DRSC10627	68230	3575	inactive
GstE12	DRSC04047	1.03e5	3825	inactive
LSm1	DRSC04458	1.01e5	3944	inactive
Odc1	DRSC07482	3504	209	inactive
nsr	DRSC04427	82318	3361	inactive
CG5877	DRSC19963	8123	768	inactive
Fad2	DRSC11165	79408	7159	inactive
Diedel3	DRSC19544	1.44e5	7516	inactive
gl	DRSC16957	1.47e5	7910	inactive
sw	DRSC20388	82111	2798	inactive
SmD2	DRSC12536	47721	201	inactive
Gr93a	DRSC14593	1.49e5	6555	inactive
wbl	DRSC07718	1.58e5	4879	inactive
Invadolysin	DRSC15527	1.35e5	5736	inactive
CG15425	DRSC00440	1.58e5	4939	inactive
CG42490 (retired record)	DRSC01649	1.62e5	5760	inactive
mei-217 + mei-218	DRSC20349	2.45e5	7510	inactive
CG10182	DRSC14202	98091	5654	inactive
Sox21a	DRSC10819	1.66e5	7497	inactive
CG2955	DRSC00552	85971	3615	inactive
mys	DRSC18799	61104	4495	inactive
CG45105	DRSC15002	96784	4951	inactive
CG45105	DRSC15833	72859	6048	inactive
CG11679	DRSC19415	6923	828	inactive
Lcp9	DRSC04287	99808	3925	inactive
YME1L	DRSC04378	78115	3956	inactive
CG34457	DRSC06924	1.41e5	5516	inactive
sima	DRSC17055	1.06e5	3914	inactive
Tep4	DRSC03453	99526	4103	inactive
Uch-L5R	DRSC19825	1.11e5	7455	inactive
OXA1L	DRSC09672	71445	3441	inactive
CG12219	DRSC17829	82024	4458	inactive
Syngr	DRSC06003	93128	3755	inactive
kkv	DRSC12315	70588	3496	inactive
TfIIA-S	DRSC16883	82720	5583	inactive
sturkopf	DRSC08637	74898	3507	inactive
CG16800	DRSC02518	96063	4425	inactive
CG42820 + CG42819	DRSC02264	1.64e5	4811	inactive
CG42820 + CG42819	DRSC02265	1.42e5	4782	inactive
Cse1	DRSC03287	73374	4011	inactive
CG40198	DRSC21068	70806	6070	inactive
CG13137	DRSC02234	1.55e5	5003	inactive
CG31705	DRSC01991	60192	3644	inactive
Acox57D-d	DRSC04561	83998	3554	inactive
Mal-B1	DRSC02416	1.43e5	4815	inactive
CG7542	DRSC10868	1.56e5	6876	inactive
alphaKap4	DRSC09823	85432	3204	inactive
CG31068	DRSC13820	85064	2365	inactive
hyd	DRSC16971	1.38e5	5632	inactive
Oct-TyrR	DRSC11883	1.24e5	7111	inactive
lig	DRSC07246	3288	64	inactive
lig	DRSC07247	1.49e5	5728	inactive
lace	DRSC03564	81898	3759	inactive
Fit2	DRSC10908	77243	3423	inactive
CG30274	DRSC04171	1.06e5	4517	inactive
tex	DRSC16517	1.31e5	6331	inactive
Yp2	DRSC18732	6826	772	inactive
EMRE	DRSC06686	1.35e5	4468	inactive
CaMKII	DRSC17214	1906	908	inactive
l(3)80Fj	DRSC20986	80802	2988	inactive
l(3)80Fj	DRSC20989	1.52e5	6562	inactive
Lip2	DRSC02577	1.60e5	5747	inactive
Lip2	DRSC02578	1.62e5	5367	inactive
CG10931	DRSC06015	1.58e5	5414	inactive
Reepl1	DRSC19418	1.37e5	6637	inactive
CG31883	DRSC02561	84140	2878	inactive
Tap42	DRSC02967	1.07e5	4255	inactive
CG17764	DRSC18135	85177	4766	inactive
bru3	DRSC09280	1.34e5	4097	inactive
bru3	DRSC09687	76935	3627	inactive
bru3	DRSC09887	1.33e5	7119	inactive
CG7565	DRSC10881	86110	3984	inactive
Zw10	DRSC18793	1794	992	inactive
CG17325 + CG42305	DRSC02602	1.16e5	4242	inactive
CG31643	DRSC00906	1.26e5	5652	inactive
Syp	DRSC13444	83666	2923	inactive
Syp	DRSC15286	61816	3652	inactive
CG8204	DRSC07106	84945	3972	inactive
CG9503	DRSC20186	2.24e5	6814	inactive

In a second layout: entries from further up
{"gene knocked down":"tex","dsRNA":"DRSC16517","E2F firefly, rep 1":1.31e5,"Renilla normaliser, rep 1":6331,"outcome":"inactive"}
{"gene knocked down":"Yp2","dsRNA":"DRSC18732","E2F firefly, rep 1":6826,"Renilla normaliser, rep 1":772,"outcome":"inactive"}
{"gene knocked down":"EMRE","dsRNA":"DRSC06686","E2F firefly, rep 1":1.35e5,"Renilla normaliser, rep 1":4468,"outcome":"inactive"}
{"gene knocked down":"CaMKII","dsRNA":"DRSC17214","E2F firefly, rep 1":1906,"Renilla normaliser, rep 1":908,"outcome":"inactive"}
{"gene knocked down":"l(3)80Fj","dsRNA":"DRSC20986","E2F firefly, rep 1":80802,"Renilla normaliser, rep 1":2988,"outcome":"inactive"}
{"gene knocked down":"l(3)80Fj","dsRNA":"DRSC20989","E2F firefly, rep 1":1.52e5,"Renilla normaliser, rep 1":6562,"outcome":"inactive"}
{"gene knocked down":"Lip2","dsRNA":"DRSC02577","E2F firefly, rep 1":1.60e5,"Renilla normaliser, rep 1":5747,"outcome":"inactive"}
{"gene knocked down":"Lip2","dsRNA":"DRSC02578","E2F firefly, rep 1":1.62e5,"Renilla normaliser, rep 1":5367,"outcome":"inactive"}
{"gene knocked down":"CG10931","dsRNA":"DRSC06015","E2F firefly, rep 1":1.58e5,"Renilla normaliser, rep 1":5414,"outcome":"inactive"}
{"gene knocked down":"Reepl1","dsRNA":"DRSC19418","E2F firefly, rep 1":1.37e5,"Renilla normaliser, rep 1":6637,"outcome":"inactive"}
{"gene knocked down":"CG31883","dsRNA":"DRSC02561","E2F firefly, rep 1":84140,"Renilla normaliser, rep 1":2878,"outcome":"inactive"}
{"gene knocked down":"Tap42","dsRNA":"DRSC02967","E2F firefly, rep 1":1.07e5,"Renilla normaliser, rep 1":4255,"outcome":"inactive"}
{"gene knocked down":"CG17764","dsRNA":"DRSC18135","E2F firefly, rep 1":85177,"Renilla normaliser, rep 1":4766,"outcome":"inactive"}
